Results deposited as PubChem BioAssay AID743121 (NCATS, 2013)
Screen: 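Knock-downs that sensitise breast cancer cells to camptothecin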 (primary screen). Cells: MDA-MB-231 cells, a human breast cancer line. Knock-down reagent: single siRNA against human genes, 20 nM siRNA (0.8 pmol per well). Duration: 120 h (drug added 48 h after transfection, read 72 h later). Challenge: camptothecin 20 nM (about EC30) for 72 h; vehicle 0.1% DMSO in parallel plates. Measurement: 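CellTiter-Glo ATP signal, scaled to control siRNA as percent viability; sensitisation given as log2 of untreated divided by camptothecin-treated viability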. Scale: log2 vehicle/camptothecin viability: higher = stronger sensitisation to camptothecin; viability with camptothecin and viability without drug: higher = more viable cells. Active means: 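Active genes have an RSA gene-level p-value below 0.001, computed from the ratios of their separate siRNAs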.
In all, the deposit lists about 26,000 reagents; shown is a random part of them. In the full data, 167 (0.63%) were called active. 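Calls are per gene from RSA p-values that are not deposited; an individual active-marked siRNA can sensitise only weakly.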 A number with no mark means an inactive call. The numbers tell different reagents against one gene apart.

Target gene,siRNA no.,log2 vehicle/camptothecin viability,viability with camptothecin (% of control),viability without drug (% of control)
PRKCI,1,-0.351,73.1,57.3
PRKCI,2,-0.179,132,117
PRKCI,3,-0.316,97.4,78.2
PRKCI,4,-0.219,49.5,42.5
AADAC,1,-0.155,112,100
AADAC,2,-0.194,108,94.3
AADAC,3,-0.216,24.6,21.2
P2RX5,1,-0.354,87.9,68.7
P2RX5,2,0.00997,101,102
P2RX5,3,-0.145,93.3,84.4
P2RX5,4,0.0123,58.4,58.9
P2RX5,5,-0.471,26.2,18.9
P2RX5,6,0.339,46.7,59.1
P2RX5,7,0.295,82,101
P2RX5,8,-0.138,63.7,57.9
PLA2R1,1,-0.163,62.7,55.9
PLA2R1,2,-0.121,32.4,29.8
PLA2R1,3,0.123,81.3,88.5
PLA2R1,4,0.0845,66.4,70.4
UBQLNL,1,-0.081,72,68.1
UBQLNL,2,-0.0891,22.2,20.9
UBQLNL,3,0.535,44.8,64.9
UBQLNL,4,-0.0715,88,83.7
AVP,1,-0.382,49,37.6
AVP,2,-0.0732,86.4,82.1
AVP,3,-0.368,33.2,25.7
AVP,4,-0.0255,60.1,59.1
XPNPEP1,1,-0.147,95.6,86.3
XPNPEP1,2,-0.652,86.2,54.8
XPNPEP1,3,-0.112,13.1,12.1
RALA,1,0.155,68.8,76.6
RALA,2,-0.0701,72.1,68.7
RALA,3,-0.021,106,105
RALA,4,0.0507,99,103
RNF145,1,-0.348,25.8,20.3
RNF145,2,-0.407,81.8,61.7
RNF145,3,0.806,21.8,38.1
RNF145,4,-0.166,55.8,49.7
FMO5,1,-0.014,85.4,84.5
FMO5,2,0.826,7.7,13.6
FMO5,3,-0.0405,42.1,40.9
FMO5,4,-0.231,79.9,68.1
MAPK15,1,0.766,26.5,45
MAPK15,2,-0.00826,80.7,80.3
MAPK15,3,-0.518,128,89.7
MAPK15,4,0.434,30.9,41.8
TUBB2A,1,-0.0164,108,107
TUBB2A,2,-0.0253,94.3,92.7
TUBB2A,3,0.317,25.2,31.4
TUBB2A,4,0.0889,42.9,45.6
RIPK1,1,-0.541,47.2,32.4
RIPK1,2,0.234,65.2,76.7
RIPK1,3,-0.21,82.1,71
RIPK1,4,0.233,76.2,89.5
RAB5B,1,-0.0912,111,104
RAB5B,2,-0.375,84.7,65.3
RAB5B,3,-0.517,139,96.8
HSD17B7,1,0.173,86.7,97.8
HSD17B7,2,0.107,52.4,56.5
HSD17B7,3,-0.417,55.8,41.8
HSD17B7,4,-0.0391,100,97.3
HSD17B7,5,0.11,69.9,75.4
RBM8A,1,-0.438,3.5,2.58
RBM8A,2,-0.0784,2.58,2.44
RBM8A,3,0.355,2.71,3.47
RBM8A,4,-0.0112,12.5,12.4
RYK,1,-0.216,102,87.5
RYK,2,-0.211,95.8,82.8
RYK,3,-0.486,73,52.1
RYK,4,-0.431,54.3,40.3
BRINP2,1,-0.254,107,89.6
BRINP2,2,0.086,67.6,71.7
BRINP2,3,-0.417,23,17.2
BRD10,1,0.119,34.8,37.8
BRD10,2,-0.112,96.6,89.4
BRD10,3,-0.087,99.5,93.7
BRD10,4,-0.484,100,71.6
PDE2A,1,-0.00567,103,102
PDE2A,2,0.112,68.8,74.3
PDE2A,3,0.86,8.36,15.2
PDE2A,4,0.404,39,51.6
SRD5A1,1,-0.311,90.6,73
SRD5A1,2,-0.142,112,101
SRD5A1,3,-0.519,56.5,39.4
SRD5A1,4,-0.126,112,103
ZNF444,1,-0.157,63.6,57.1
ZNF444,2,0.781,44.8,77
ZNF444,3,-0.185,57.3,50.4
ZNF444,4,0.0285,77.8,79.3
